Reference: the supplement of paper PMC6411743
± gives the standard deviation of the averaged measurements. This is one part of the list.

Sequences of proteins named here, by UniProt entry; tags and fusion partners are left off. A change or cut given only in a name is not applied to a line headed by its entry.
UniProt P63167, whole entry: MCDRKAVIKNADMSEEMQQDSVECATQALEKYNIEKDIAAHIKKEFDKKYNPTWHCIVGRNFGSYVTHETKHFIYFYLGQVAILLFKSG
UniProt P84103: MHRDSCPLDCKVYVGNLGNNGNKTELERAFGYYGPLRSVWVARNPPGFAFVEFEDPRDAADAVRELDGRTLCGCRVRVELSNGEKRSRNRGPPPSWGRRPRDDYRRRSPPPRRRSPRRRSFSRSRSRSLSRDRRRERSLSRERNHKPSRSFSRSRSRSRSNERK
UniProt P52298: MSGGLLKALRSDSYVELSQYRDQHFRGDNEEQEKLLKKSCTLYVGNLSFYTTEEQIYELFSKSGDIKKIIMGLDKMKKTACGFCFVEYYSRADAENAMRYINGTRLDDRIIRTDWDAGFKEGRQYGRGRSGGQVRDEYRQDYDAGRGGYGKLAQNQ
UniProt P54619: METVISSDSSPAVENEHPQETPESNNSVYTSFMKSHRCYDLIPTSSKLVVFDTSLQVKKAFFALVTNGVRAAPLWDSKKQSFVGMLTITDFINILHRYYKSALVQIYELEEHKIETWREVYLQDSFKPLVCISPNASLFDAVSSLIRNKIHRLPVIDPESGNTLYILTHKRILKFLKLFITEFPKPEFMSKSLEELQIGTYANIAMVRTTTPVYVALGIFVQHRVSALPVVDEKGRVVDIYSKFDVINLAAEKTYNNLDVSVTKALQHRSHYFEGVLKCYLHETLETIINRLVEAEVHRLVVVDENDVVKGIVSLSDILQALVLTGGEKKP
UniProt P62166, whole entry, looked up: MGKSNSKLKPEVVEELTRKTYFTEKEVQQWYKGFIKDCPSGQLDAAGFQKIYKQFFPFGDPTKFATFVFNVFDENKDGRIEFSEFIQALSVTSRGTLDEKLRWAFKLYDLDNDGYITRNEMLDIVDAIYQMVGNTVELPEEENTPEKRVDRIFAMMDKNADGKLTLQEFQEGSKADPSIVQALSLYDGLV
UniProt P52758: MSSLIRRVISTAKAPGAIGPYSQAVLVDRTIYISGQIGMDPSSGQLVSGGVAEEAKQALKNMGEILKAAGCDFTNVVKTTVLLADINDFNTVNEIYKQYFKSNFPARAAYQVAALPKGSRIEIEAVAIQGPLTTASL
UniProt P54578: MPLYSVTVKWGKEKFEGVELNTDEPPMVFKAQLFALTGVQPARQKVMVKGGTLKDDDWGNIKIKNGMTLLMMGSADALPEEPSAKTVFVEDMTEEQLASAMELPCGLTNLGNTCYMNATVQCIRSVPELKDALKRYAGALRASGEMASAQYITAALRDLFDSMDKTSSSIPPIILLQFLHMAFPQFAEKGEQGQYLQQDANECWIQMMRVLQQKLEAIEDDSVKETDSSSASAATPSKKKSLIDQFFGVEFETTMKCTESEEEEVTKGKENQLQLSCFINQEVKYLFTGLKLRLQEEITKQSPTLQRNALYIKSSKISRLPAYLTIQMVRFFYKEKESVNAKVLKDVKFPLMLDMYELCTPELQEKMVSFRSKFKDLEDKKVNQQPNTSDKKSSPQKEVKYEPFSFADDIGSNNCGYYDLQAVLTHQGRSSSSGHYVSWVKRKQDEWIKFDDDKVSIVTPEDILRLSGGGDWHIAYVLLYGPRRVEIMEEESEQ
UniProt P57081: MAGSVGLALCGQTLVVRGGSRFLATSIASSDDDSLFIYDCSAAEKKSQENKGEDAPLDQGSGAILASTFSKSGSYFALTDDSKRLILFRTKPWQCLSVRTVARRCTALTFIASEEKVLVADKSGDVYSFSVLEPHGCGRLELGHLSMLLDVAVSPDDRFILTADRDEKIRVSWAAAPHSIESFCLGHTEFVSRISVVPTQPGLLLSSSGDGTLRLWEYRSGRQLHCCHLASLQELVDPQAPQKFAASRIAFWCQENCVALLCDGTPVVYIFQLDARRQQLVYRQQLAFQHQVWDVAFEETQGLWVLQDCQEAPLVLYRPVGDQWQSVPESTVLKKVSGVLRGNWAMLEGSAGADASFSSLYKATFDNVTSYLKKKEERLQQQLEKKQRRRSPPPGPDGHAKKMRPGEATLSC
UniProt P51570: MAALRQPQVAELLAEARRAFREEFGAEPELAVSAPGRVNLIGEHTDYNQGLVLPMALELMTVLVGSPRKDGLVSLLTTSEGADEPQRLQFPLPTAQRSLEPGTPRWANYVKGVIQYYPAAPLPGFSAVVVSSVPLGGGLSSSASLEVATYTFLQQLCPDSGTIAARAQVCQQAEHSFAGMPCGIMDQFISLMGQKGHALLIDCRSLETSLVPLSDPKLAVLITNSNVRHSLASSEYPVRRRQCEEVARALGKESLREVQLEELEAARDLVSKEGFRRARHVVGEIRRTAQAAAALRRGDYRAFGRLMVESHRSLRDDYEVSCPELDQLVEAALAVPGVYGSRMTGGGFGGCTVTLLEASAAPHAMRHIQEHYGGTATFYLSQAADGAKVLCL
UniProt P57076: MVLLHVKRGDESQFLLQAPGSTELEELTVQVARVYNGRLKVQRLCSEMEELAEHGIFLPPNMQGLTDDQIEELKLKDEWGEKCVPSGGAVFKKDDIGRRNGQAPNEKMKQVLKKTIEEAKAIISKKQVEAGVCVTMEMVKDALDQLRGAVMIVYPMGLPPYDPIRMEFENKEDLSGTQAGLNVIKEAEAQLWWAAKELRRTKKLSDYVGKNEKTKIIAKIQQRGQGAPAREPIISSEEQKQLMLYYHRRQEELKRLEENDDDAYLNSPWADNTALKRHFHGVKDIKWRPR
UniProt P56134: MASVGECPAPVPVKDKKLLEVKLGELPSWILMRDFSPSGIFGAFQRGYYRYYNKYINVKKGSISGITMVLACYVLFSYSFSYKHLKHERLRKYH
UniProt P55809: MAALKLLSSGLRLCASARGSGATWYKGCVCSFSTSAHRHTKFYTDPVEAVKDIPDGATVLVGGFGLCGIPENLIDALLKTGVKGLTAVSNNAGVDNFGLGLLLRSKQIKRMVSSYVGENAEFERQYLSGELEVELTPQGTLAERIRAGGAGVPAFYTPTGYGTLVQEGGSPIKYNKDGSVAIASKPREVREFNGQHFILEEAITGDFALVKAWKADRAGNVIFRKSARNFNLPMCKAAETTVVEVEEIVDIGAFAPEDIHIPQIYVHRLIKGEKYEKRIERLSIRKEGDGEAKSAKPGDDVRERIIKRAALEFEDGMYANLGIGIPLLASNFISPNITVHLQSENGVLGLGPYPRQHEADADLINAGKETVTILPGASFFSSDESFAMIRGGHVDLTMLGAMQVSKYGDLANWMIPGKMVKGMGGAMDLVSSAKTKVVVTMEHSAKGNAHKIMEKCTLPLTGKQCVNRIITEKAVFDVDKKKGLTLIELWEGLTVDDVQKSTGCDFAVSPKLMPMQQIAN
UniProt P61225: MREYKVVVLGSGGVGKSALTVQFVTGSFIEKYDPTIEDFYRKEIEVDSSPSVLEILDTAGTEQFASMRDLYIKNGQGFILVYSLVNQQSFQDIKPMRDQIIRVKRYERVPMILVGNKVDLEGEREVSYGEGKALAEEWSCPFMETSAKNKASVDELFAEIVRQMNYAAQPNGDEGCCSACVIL
UniProt P58557: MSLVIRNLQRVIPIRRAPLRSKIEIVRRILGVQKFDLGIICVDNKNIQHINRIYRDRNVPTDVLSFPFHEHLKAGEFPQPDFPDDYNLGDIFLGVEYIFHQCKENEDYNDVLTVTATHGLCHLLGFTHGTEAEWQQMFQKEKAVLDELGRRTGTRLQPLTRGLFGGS
UniProt P63092, whole entry, looked up: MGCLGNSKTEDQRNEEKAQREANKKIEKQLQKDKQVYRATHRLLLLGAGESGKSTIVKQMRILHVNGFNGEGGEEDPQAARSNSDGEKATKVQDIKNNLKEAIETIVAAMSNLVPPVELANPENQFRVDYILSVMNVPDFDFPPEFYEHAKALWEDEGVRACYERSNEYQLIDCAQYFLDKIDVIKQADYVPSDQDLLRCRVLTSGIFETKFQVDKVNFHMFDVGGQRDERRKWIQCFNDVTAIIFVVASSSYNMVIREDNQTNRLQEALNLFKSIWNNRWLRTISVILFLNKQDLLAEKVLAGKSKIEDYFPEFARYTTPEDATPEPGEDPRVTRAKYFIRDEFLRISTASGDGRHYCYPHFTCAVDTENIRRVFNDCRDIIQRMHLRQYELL
UniProt P53677: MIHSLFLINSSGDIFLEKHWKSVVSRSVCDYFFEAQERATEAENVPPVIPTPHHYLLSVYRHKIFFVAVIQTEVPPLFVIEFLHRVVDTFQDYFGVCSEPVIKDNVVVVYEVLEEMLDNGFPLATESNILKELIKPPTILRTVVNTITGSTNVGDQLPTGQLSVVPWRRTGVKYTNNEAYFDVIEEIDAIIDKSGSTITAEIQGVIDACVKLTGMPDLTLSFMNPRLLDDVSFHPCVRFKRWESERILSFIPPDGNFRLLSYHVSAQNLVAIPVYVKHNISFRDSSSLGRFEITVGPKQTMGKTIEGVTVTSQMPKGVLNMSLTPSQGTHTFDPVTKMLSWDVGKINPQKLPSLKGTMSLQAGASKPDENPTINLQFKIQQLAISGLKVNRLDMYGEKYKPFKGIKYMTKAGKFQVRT
UniProt P51532, whole entry: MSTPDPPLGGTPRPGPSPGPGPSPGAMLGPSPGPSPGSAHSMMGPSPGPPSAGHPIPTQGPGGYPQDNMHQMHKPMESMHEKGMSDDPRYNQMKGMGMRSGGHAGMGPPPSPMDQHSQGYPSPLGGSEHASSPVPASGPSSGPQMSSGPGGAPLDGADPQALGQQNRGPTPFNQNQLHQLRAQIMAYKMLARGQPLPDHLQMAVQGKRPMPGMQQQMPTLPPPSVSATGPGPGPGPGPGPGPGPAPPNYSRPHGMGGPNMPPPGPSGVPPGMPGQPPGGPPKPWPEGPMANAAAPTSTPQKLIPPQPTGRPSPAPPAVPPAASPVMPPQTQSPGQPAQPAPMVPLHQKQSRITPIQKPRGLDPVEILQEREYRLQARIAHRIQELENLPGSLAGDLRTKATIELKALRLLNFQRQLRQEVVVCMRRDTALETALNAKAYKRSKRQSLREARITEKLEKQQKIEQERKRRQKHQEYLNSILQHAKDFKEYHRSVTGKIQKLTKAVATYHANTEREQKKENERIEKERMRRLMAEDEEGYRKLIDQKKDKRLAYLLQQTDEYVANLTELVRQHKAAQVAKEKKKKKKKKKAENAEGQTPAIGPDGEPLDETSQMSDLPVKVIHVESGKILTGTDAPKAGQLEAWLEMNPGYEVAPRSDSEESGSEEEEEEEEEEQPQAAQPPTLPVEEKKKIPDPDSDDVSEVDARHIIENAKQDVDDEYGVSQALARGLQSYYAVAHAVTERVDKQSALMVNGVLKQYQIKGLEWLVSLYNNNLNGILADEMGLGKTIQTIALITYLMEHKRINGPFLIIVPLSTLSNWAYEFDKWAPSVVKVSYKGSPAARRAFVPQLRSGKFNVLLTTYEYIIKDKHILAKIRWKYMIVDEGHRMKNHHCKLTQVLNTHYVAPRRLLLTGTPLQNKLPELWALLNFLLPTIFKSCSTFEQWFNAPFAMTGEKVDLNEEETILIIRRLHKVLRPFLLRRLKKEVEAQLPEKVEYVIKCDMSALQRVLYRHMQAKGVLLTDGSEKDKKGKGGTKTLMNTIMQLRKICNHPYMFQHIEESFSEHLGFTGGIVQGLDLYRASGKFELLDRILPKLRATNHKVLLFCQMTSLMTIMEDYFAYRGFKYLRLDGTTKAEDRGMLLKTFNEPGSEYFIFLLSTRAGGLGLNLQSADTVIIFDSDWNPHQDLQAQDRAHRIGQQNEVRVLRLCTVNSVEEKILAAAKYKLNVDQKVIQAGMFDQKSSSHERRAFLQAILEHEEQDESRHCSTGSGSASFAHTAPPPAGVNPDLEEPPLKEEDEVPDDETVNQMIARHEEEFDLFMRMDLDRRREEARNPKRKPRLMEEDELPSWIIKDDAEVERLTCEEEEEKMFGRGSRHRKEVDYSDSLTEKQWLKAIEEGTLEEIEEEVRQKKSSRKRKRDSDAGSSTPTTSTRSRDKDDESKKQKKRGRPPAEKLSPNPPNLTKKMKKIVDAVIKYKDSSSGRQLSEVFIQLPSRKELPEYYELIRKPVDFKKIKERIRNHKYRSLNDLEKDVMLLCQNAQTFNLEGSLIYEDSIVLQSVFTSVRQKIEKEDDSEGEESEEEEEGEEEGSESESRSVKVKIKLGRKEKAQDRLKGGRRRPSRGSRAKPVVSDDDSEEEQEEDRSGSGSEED
UniProt P55769: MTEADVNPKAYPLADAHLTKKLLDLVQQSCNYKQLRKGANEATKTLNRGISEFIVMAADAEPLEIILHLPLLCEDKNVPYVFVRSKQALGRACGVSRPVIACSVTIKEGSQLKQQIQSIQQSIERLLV
UniProt P78406: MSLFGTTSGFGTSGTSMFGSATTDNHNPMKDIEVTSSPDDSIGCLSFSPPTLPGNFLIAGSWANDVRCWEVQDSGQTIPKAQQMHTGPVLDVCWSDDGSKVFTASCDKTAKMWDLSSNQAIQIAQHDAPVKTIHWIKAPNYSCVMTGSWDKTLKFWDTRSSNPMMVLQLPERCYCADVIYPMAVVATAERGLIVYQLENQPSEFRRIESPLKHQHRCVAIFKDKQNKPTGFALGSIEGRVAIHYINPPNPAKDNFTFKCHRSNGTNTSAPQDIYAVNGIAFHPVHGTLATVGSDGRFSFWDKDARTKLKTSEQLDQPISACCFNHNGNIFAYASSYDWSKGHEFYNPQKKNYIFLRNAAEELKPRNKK

The targets below were run with Nc1nc2c(ncn2[C@@H]2O[C@H](COP(=O)(O)OP(=O)(O)OP(=O)(O)O)[C@@H](O)[C@H]2O)c(=O)[nH]1 [guanosine triphosphate] (assay: NP40-soluble protein abundance relative to vehicle (solubility fold change) (ratio); higher = more soluble protein in presence of GTP). Conditions: concentration: 2mM.
In short: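 Jurkat crude lysate (Dounce-homogenised) was treated with eight concentrations from 0.1 to 10 mM for 10 min at room temperature, then 3 min at 37 °C. It was solubilised with 0.8% NP40 and benzonase (60 min, 4 °C) and ultracentrifuged, and the supernatant was TMT-labelled for LC-MS/MS. Intensities were vsn-normalised, and the value is the fold change against the NP40-processed vehicle per replicate, from three independent experiments.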

Target	NP40-soluble protein abundance
UniProt P63167	1.02 ± 0.046
UniProt P84103 and related entries	1.03 ± 0.068
NCBP2 (UniProt P52298)	1.03 ± 0.084
UniProt P54619 and related entries	0.982 ± 0.12
NCS1 (UniProt P62166)	0.902 ± 0.21
MVD (UniProt P53602)	0.912 ± 0.018
UniProt P52758	0.919 ± 0.01
UniProt P54578 and related entries	0.922 ± 0.013
YARS (UniProt P54577)	0.878 ± 0.048
UniProt Q00537 and related entries	1.14 ± 0.087
ST13 (UniProt P50502)	0.868 ± 0.081
SUB1 (UniProt P53999)	0.856 ± 0.016
UniProt P57081 and related entries	1.04 ± 0.076
FXR2 (UniProt P51116)	1.51 ± 0.14
RBM6 (UniProt P78332)	1.06 ± 0.058
GALK1 (UniProt P51570)	0.957 ± 0.044
UniProt P67870 and related entries	1.01 ± 0.032
CDK5 (UniProt Q00535)	0.931 ± 0.042
UniProt P57076	0.944 ± 0.087
UniProt P56134 and related entries	0.906 ± 0.037

Target	NP40-soluble protein abundance
OXCT1 (UniProt P55809)	0.907 ± 0.032
ARF3 (UniProt P61204)	0.98 ± 0.12
UniProt P61225	0.933 ± 0.038
YBEY (UniProt P58557)	1.05 ± 0.054
UniProt P63092-2|P63092-3|P63092 and related entries	0.91 ± 0.024
AP3M2 (UniProt P53677)	0.955 ± 0.1
RPL7A (UniProt P62424)	0.904 ± 0.083
UniProt P51532 and related entries	1.15 ± 0.13
UniProt P55769	1.11 ± 0.036
UniProt P62081	1.07 ± 0.15
UniProt P82912 and related entries	1.32 ± 0.25
UniProt P78406 and related entries	0.986 ± 0.049
UniProt P62269	0.934 ± 0.19
UniProt P63000 and related entries	1.03 ± 0.064
UniProt P62913 and related entries	1.03 ± 0.13
UniProt P62277	1.02 ± 0.3
UniProt P61966	1.09 ± 0.032
MPP1 (UniProt Q00013)	0.9688 ± 0.0037
UniProt P53990 and related entries	0.917 ± 0.071

Taken from above:
NP40-soluble protein abundance with UniProt P62081 is entered as 1.07 ± 0.15
NP40-soluble protein abundance with RPL7A (UniProt P62424) is entered as 0.904 ± 0.083
